The text below walks through data of the supplement of paper PMC12595434, “Development of retinoid nuclear receptor pathway antagonists through targeting aldehyde dehydrogenase 1A3” (iScience, 2025).

Chains of the proteins cited; added tags and fusions are not shown. Lines headed by an entry give the natural chain unless they say otherwise; changes in a name come on top.
UniProt Q9NV56, whole entry: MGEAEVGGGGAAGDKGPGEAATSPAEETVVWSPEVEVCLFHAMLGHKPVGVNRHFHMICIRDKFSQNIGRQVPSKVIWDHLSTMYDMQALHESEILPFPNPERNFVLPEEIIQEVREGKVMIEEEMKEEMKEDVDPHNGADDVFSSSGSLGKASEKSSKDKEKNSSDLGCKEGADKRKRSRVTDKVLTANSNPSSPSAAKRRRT
UniProt Q9NQT8: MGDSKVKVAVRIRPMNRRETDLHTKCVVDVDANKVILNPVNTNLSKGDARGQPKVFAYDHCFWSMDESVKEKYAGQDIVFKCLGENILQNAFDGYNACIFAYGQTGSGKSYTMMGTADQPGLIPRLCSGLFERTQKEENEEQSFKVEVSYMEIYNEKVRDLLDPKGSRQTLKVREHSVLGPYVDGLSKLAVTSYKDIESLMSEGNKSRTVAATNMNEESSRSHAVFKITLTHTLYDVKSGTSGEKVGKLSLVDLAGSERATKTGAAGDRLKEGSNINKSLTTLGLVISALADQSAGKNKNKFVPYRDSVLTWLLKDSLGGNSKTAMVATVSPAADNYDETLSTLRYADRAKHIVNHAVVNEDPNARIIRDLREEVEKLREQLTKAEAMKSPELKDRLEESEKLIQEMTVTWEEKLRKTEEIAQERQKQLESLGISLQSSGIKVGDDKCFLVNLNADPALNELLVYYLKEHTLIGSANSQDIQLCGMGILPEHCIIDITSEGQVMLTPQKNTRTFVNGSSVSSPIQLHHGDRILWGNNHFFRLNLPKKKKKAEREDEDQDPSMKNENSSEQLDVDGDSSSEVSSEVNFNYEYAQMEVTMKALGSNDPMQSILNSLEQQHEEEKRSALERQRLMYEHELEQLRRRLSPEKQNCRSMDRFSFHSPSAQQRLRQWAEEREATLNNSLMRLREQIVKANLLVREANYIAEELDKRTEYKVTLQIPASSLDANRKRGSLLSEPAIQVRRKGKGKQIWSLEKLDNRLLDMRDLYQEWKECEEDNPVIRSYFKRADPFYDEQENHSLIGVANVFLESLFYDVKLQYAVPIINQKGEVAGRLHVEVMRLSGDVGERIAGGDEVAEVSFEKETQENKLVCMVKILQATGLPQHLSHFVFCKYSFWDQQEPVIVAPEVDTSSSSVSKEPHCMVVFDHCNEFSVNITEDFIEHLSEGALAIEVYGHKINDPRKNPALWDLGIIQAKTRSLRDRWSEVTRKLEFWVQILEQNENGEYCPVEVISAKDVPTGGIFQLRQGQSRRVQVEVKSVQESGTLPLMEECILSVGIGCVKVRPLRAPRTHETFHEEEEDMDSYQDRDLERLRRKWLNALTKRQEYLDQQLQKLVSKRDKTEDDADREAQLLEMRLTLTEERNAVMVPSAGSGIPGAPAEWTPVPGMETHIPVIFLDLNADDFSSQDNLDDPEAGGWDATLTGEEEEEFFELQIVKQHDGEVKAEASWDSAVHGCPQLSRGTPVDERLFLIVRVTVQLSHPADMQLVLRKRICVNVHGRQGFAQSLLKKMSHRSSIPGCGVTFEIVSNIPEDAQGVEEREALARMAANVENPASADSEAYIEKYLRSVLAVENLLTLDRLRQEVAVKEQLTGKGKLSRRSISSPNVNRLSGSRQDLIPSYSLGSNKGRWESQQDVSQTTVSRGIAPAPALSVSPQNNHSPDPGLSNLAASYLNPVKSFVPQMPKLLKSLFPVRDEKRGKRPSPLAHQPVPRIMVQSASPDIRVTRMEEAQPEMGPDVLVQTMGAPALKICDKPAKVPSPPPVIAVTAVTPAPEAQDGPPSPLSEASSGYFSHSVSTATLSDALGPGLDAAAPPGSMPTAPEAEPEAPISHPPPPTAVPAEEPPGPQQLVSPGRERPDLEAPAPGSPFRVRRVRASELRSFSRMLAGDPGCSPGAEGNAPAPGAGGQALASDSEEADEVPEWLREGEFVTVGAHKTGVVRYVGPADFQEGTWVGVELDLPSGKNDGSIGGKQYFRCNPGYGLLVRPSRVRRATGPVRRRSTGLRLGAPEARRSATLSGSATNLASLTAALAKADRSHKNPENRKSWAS
UniProt Q9NPL8: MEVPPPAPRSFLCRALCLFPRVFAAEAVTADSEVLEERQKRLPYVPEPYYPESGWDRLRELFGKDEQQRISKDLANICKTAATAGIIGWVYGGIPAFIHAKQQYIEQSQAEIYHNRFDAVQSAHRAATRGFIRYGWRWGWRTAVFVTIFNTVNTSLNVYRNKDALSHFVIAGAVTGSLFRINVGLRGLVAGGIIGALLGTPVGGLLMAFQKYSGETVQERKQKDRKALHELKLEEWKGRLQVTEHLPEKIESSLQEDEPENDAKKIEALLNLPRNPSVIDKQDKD
UniProt Q9HCU8: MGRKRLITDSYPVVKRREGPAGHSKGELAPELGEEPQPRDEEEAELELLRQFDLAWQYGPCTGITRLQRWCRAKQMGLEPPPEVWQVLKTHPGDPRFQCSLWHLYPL
UniProt Q9NUX5: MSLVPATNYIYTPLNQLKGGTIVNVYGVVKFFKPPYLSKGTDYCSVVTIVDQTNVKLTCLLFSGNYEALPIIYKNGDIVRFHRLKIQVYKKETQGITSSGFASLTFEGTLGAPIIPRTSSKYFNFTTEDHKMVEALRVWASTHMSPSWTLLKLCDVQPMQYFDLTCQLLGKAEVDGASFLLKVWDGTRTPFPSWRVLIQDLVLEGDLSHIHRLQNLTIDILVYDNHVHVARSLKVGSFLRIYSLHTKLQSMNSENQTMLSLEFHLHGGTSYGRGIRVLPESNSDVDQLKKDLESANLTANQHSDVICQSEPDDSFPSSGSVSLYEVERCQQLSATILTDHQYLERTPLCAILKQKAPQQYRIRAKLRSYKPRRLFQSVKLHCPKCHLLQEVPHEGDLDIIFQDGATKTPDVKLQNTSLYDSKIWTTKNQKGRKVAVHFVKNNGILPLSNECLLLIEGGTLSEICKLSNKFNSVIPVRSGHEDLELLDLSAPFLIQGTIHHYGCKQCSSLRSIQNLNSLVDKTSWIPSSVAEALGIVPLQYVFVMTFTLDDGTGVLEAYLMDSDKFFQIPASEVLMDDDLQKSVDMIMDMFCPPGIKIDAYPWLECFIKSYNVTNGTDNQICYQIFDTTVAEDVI
UniProt Q9NUP9: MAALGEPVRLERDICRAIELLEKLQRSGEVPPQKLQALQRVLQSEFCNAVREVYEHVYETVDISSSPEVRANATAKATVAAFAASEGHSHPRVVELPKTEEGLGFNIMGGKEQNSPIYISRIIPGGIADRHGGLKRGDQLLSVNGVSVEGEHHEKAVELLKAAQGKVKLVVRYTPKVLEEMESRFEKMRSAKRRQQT
UniProt Q9NR56: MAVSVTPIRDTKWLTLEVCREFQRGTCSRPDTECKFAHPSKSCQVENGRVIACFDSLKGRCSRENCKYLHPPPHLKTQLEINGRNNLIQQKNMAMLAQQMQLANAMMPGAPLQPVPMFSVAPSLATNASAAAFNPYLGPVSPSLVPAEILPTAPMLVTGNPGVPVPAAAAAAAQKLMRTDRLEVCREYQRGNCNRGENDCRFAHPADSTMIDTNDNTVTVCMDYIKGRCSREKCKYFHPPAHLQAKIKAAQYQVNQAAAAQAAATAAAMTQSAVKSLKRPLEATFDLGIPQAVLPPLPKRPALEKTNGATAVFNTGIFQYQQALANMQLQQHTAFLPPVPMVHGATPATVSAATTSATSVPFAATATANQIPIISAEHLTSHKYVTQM
UniProt Q9HCG7: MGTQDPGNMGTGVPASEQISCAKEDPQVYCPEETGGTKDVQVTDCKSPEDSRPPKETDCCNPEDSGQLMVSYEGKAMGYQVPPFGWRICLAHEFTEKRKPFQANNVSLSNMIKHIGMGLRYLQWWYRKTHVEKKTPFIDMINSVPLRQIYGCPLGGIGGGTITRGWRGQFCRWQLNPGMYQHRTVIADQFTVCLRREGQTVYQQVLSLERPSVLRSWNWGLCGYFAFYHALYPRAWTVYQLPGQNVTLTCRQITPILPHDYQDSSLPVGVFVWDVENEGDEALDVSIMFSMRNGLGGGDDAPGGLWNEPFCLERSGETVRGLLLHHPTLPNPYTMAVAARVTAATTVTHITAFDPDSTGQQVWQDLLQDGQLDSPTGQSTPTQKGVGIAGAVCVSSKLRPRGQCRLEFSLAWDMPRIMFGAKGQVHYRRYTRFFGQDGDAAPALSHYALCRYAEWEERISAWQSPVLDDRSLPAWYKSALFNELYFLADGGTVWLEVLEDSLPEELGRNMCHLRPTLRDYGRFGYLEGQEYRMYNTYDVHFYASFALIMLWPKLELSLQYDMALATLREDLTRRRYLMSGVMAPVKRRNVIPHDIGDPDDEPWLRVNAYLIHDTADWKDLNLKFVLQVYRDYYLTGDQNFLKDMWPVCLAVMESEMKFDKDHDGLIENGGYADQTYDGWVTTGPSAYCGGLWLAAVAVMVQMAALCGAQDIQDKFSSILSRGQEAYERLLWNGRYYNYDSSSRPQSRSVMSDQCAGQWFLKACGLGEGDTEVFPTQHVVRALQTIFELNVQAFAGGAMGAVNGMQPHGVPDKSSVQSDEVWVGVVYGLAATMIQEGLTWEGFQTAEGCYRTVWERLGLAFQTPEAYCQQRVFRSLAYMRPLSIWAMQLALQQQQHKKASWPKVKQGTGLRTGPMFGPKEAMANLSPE
UniProt Q9NSV4, whole entry: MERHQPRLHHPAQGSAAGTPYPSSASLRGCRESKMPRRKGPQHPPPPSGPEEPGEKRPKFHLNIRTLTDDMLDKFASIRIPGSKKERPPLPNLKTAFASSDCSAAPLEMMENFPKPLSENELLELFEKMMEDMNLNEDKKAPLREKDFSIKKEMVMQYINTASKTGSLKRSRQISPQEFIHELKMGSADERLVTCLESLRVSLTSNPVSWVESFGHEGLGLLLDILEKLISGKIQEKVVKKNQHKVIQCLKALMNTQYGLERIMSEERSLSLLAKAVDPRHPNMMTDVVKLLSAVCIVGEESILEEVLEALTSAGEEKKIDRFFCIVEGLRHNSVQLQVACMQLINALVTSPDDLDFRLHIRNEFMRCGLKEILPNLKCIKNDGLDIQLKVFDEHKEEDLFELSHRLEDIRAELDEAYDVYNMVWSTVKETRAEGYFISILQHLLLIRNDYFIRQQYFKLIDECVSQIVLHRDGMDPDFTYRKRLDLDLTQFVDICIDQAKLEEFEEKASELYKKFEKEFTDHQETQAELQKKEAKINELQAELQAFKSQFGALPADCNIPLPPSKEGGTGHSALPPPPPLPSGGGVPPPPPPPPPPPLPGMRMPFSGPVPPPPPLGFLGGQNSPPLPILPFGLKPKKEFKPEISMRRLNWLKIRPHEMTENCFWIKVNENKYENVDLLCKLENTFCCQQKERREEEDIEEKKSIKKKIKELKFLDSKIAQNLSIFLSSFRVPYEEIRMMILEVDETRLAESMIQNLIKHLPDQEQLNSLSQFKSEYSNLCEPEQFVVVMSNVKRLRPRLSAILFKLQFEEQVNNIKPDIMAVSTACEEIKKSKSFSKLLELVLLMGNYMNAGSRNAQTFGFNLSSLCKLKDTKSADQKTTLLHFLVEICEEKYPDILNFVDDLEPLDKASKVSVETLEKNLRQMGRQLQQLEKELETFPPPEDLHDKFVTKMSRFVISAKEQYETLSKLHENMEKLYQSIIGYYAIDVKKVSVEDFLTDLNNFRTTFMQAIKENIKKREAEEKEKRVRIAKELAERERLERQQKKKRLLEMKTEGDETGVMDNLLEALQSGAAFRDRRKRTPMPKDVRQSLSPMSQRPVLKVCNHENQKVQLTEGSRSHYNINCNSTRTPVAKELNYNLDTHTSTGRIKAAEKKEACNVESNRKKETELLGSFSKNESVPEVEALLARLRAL
UniProt Q9NRL3: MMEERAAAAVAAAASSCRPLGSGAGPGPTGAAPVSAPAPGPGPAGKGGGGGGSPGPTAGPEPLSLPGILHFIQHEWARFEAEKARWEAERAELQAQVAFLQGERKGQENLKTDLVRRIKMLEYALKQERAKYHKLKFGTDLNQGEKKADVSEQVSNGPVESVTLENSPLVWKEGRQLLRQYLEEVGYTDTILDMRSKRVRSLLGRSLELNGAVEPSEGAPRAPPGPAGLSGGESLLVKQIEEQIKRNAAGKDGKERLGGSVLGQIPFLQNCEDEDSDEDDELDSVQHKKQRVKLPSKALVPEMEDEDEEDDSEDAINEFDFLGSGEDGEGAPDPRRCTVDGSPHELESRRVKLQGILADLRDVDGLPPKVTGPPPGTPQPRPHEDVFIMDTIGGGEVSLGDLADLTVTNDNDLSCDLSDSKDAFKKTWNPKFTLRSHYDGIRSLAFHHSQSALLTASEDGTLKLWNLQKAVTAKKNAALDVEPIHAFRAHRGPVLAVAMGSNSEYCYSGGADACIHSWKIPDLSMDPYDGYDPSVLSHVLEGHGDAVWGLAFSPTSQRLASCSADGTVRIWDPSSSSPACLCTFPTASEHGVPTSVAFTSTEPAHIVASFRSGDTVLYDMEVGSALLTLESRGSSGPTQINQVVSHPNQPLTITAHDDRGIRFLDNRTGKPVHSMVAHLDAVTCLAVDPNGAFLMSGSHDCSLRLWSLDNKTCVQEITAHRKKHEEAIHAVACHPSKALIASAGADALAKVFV

Compound in this assay: CCc1cnccc1C(=O)Nc1cc2c(cc1F)NC(=O)CC2
Briefly: melting temperature shift (DMSO Tm minus MBE1-treated Tm) in cellular thermal proteome profiling; higher = less thermal stabilization by MBE1 (negative = stabilized by MBE1). The conditions noted are these: A375.

The other results are listed elsewhere or left out. Single values of this set are uncertain.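 Many melting curves are irregular; where none melted, Tm was taken as 64 °C.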

On to EXOSC4 (UniProt Q9NPD3), for which the melting temperature shift reads like this: (MBE1 concentration: 100 nM) 0.505 °C; (MBE1 concentration: 1 uM) 0.44 °C.

With UniProt Q9H977, the melting temperature shift is, setting by setting: (MBE1 concentration: 100 nM) -0.911 °C; (MBE1 concentration: 1 uM) -0.0977 °C.

As to UniProt Q9NQ90, the melting temperature shift was 0.134 °C (MBE1 concentration: 100 nM) and 1.24 °C (MBE1 concentration: 1 uM).

Regarding KLC4 (UniProt Q9NSK0), the melting temperature shift (MBE1 concentration: 100 nM) was 0.226 °C and the melting temperature shift (MBE1 concentration: 1 uM) is 2.33 °C.

As to NCOA5 (UniProt Q9HCD5), the melting temperature shift is 0.269 °C (MBE1 concentration: 100 nM) and -0.177 °C (MBE1 concentration: 1 uM).

For the target MRGBP (UniProt Q9NV56), the melting temperature shift was -1.01 °C (MBE1 concentration: 100 nM) and 0.53 °C (MBE1 concentration: 1 uM).

C12ORF10 (UniProt Q9HB07): the melting temperature shift by setting is: (MBE1 concentration: 100 nM) -1.51 °C; (MBE1 concentration: 1 uM) -0.122 °C.

Turning to MED17 (UniProt Q9NVC6), the melting temperature shift by setting is: (MBE1 concentration: 100 nM) 0.421 °C; (MBE1 concentration: 1 uM) 0.0733 °C.

For the target UniProt Q9NQT8, the melting temperature shift by setting is: (MBE1 concentration: 100 nM) -0.87 °C; (MBE1 concentration: 1 uM) -0.447 °C.

For the target KIF15 (UniProt Q9NS87), the melting temperature shift by setting is: (MBE1 concentration: 100 nM) -1 °C; (MBE1 concentration: 1 uM) -0.186 °C.

For the target EXOSC5 (UniProt Q9NQT4), the melting temperature shift is, setting by setting: (MBE1 concentration: 100 nM) -0.244 °C; (MBE1 concentration: 1 uM) 0.159 °C.

TIMMDC1 (UniProt Q9NPL8): the melting temperature shift by setting is: (MBE1 concentration: 100 nM) -3.15 °C; (MBE1 concentration: 1 uM) -1.75 °C.

With UniProt Q9HCU8, the melting temperature shift (MBE1 concentration: 100 nM) is -1.14 °C and the melting temperature shift (MBE1 concentration: 1 uM) is 0.51 °C.

UniProt Q9NUX5: the melting temperature shift (MBE1 concentration: 100 nM) is -2.26 °C and the melting temperature shift (MBE1 concentration: 1 uM) is 0.122 °C.

For the target QTRTD1 (UniProt Q9H974), the melting temperature shift is, setting by setting: (MBE1 concentration: 100 nM) -0.055 °C; (MBE1 concentration: 1 uM) 0.0611 °C.

Take UCK1 (UniProt Q9HA47): the melting temperature shift reads like this: (MBE1 concentration: 100 nM) -1.61 °C; (MBE1 concentration: 1 uM) -1.56 °C.

As for LIN7C (UniProt Q9NUP9), the melting temperature shift by setting is: (MBE1 concentration: 100 nM) -0.586 °C; (MBE1 concentration: 1 uM) 0.00611 °C.

On to MBNL1 (UniProt Q9NR56), for which the melting temperature shift (MBE1 concentration: 100 nM) is -0.402 °C and the melting temperature shift (MBE1 concentration: 1 uM) turned out to be 0.83 °C.

Take UniProt Q9HCG7: the melting temperature shift (MBE1 concentration: 100 nM) is -0.402 °C and the melting temperature shift (MBE1 concentration: 1 uM) worked out at 0.49 °C.

On to DIAPH3 (UniProt Q9NSV4), for which the melting temperature shift by setting is: (MBE1 concentration: 100 nM) -2 °C; (MBE1 concentration: 1 uM) -0.394 °C.

DIABLO (UniProt Q9NR28): the melting temperature shift was -1.58 °C (MBE1 concentration: 100 nM) and -1.31 °C (MBE1 concentration: 1 uM).

Take STRN4 (UniProt Q9NRL3): the melting temperature shift worked out at 0.739 °C (MBE1 concentration: 100 nM) and 0.0366 °C (MBE1 concentration: 1 uM).

For MRPL44 (UniProt Q9H9J2), the melting temperature shift is, setting by setting: (MBE1 concentration: 100 nM) 1.01 °C; (MBE1 concentration: 1 uM) 0.653 °C.
